Here are results for 2 substances from publication PMC11722552.

Chains of the proteins cited; added tags and fusions are not shown. Lines headed by an entry give the natural chain unless they say otherwise; changes in a name come on top.
UniProt Q15388: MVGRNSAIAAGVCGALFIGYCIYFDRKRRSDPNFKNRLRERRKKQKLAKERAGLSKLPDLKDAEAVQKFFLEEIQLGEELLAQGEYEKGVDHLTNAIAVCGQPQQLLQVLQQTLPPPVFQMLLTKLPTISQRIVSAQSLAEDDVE
UniProt Q9DCC8: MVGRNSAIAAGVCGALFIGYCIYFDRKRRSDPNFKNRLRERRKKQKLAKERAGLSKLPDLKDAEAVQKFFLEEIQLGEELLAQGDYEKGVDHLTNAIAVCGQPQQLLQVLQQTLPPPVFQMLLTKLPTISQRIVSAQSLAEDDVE
UniProt O75521: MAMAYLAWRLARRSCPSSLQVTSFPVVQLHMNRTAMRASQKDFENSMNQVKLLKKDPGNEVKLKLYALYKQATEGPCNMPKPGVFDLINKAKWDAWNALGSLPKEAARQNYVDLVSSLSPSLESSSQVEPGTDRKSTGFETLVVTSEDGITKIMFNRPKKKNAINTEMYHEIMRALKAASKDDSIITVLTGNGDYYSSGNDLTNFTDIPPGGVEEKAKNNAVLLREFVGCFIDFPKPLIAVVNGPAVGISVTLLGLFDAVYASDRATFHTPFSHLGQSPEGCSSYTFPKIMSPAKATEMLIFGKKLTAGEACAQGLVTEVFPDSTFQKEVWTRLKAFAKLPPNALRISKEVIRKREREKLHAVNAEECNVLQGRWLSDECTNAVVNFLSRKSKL
UniProt Q9WUR2: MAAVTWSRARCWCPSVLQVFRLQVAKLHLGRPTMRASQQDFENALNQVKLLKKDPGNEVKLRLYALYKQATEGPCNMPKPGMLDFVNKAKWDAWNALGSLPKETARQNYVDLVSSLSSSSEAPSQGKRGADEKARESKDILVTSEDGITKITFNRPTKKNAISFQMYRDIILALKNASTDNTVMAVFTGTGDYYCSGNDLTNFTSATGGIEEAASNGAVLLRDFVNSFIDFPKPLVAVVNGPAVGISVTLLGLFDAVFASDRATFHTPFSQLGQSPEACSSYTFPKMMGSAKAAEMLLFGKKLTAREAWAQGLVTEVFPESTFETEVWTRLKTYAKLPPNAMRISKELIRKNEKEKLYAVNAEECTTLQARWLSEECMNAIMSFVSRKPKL

No constants are given. Whether binding was seen depends on the method and setting. In cells and extracts the contact can be indirect. A result given as binding can be weak or reduced; the word gives no strength.

The target of assay [1] is TOMM20 (translocase of the mitochondrial outer membrane complex subunit 20) (human (endogenous in fibroblasts)) (UniProt Q15388). Nature of the assay: proximity ligation; Duolink in situ PLA on fixed, methanol-permeabilised human fibroblasts, endogenous proteins; control compared with patients' fibroblasts, also after GDAP1-Myc transfection or GSH-MEE treatment.
Assay [2] concerns the target TOMM20 (translocase of the mitochondrial outer membrane complex subunit 20) (mouse (endogenous in embryonic motor neurons)) (UniProt Q9DCC8). Nature of the assay: proximity ligation; Duolink in situ PLA on fixed, permeabilised (0.4% Triton X-100) cultured mouse embryonic motor neurons, endogenous proteins; wild-type compared with Gdap1-/-.

In the case of “PECI (acyl-coenzyme A-binding domain (ACBD)2/ECI2 isoform A of peroxisomes) (from UniProt O75521)”, in assay [1], the binding result was “binds”.

With “PECI (acyl-coenzyme A-binding domain (ACBD)2/ECI2 isoform A of peroxisomes) (from UniProt Q9WUR2)”, in assay [2], the binding entry is listed as “binds”.
